# Screening data

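Reporter-gene test of PMP22 expression in a rat Schwann cell line, read by firefly luciferase light output 24 hours after treatment. Seventeen-point concentration series from about 0.00016 to 58 µM. Potency is the AC50 from a fitted inhibition curve, the concentration giving half the maximal fitted effect; a lower value means a more potent inhibitor. Calls follow the activity score from curve class and fit: scores 40–100 are active, 1–39 inconclusive, 0 inactive; all rows here are inconclusive.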

Values are in µM. All entries here are filed as inconclusive. These entries are mostly ones the record files as inconclusive; other results of the assay are not listed here. Potencies fitted to partial, single-point or poorly fitting curves are rough. Activity scores are not listed here.

Compound | fitted potency (µM) | curve
Fc1ccc(C(c2ccc(F)cc2)N2CCN(CC=Cc3ccccc3)CC2)cc1 | 40.53 | inhibitor, single point
COc1ccc2c(c1)OC(C)(C)C(c1ccccc1)C2c1ccc(OCCN2CCCC2)cc1 (stereo unspecified) | 28.7 | inhibitor, partial curve, poor fit
CN1C[C@H](CNC(=O)OCc2ccccc2)C[C@@H]2c3cccc4c3c(cn4C)C[C@H]21 | 36.13 | inhibitor, partial curve, poor fit
CC(=O)c1ccc2c(c1)N(CCCN1CCC(CCO)CC1)c1ccccc1S2 | 17.36 | inhibitor, single point
C/C=C1/NN(CCCN2CCN(c3cccc(Cl)c3)CC2)C(=O)N1CCOc1ccccc1 | 40.53 | inhibitor, single point
CCOC(=O)C(CCc1ccccc1)NC1CCc2ccccc2N(CC(=O)O)C1=O (stereo unspecified) | 36.13 | inhibitor, single point
CC(C)C(Br)C(=O)NC(N)=O (stereo unspecified) | 9.074 | inhibitor, partial curve, poor fit
CCN(CC)CCNC(=O)c1c(C)[nH]c(/C=C2\C(=O)Nc3ccc(F)cc32)c1C | 10.18 | inhibitor, partial curve, poor fit
CCCOC(=O)c1ccccc1O | 0.287 | inhibitor, full curve, poor fit
CCC1OC(=O)C[C@@H](O)[C@H](C)[C@@H](OC2OC(C)CC(N(C)C)C2O)[C@@H](CC=O)C[C@@H](C)C(=O)/C=C/[C@]2(C)OC2C1C (stereo partly specified) | 8.087 | inhibitor, partial curve, poor fit
CC(NCCC(c1ccccc1)c1ccccc1)c1ccccc1 (stereo unspecified) | 22.79 | inhibitor, partial curve, poor fit
COC1=CC(=O)C[C@@H](C)[C@]12Oc1c(Cl)c(OC)cc(OC)c1C2=O | 28.7 | inhibitor, partial curve
NC(=NCCCCCCN=C(N)/N=C(\N)Nc1ccc(Cl)cc1)/N=C(\N)Nc1ccc(Cl)cc1 | 32.2 | inhibitor, single point
CC(C)(C)NC[C@H](O)c1cc(O)cc(O)c1 | 11.42 | inhibitor, full curve, poor fit
C[C@@]12CCC(=O)C=C1C=CC1C2CC[C@]2(C)C1CC[C@@]21CCC(=O)O1 (stereo partly specified) | 8.087 | inhibitor, partial curve, poor fit
C[C@@H]1O[C@@H](O[C@H]2C[C@@H](O)[C@@]3(CO)[C@H]4[C@H](O)C[C@]5(C)[C@@H](C6=CC(=O)OC6)CC[C@]5(O)[C@H]4CC[C@@]3(O)C2)[C@@H](O)[C@H](O)[C@H]1O | 4.548 | inhibitor, partial curve, poor fit
Cn1c(=O)c2[nH]c(Br)nc2n(C)c1=O | 9.074 | inhibitor, full curve, poor fit
ClC1=C(Cl)C2(Cl)C(CBr)CC1(Cl)C2(Cl)Cl (stereo unspecified) | 28.7 | inhibitor, partial curve, poor fit
CN(C)CCC=C1c2ccccc2C=Cc2ccccc21 | 20.31 | inhibitor, single point
CC(C)(C)NC(=O)[C@@H]1CC[C@@H]2[C@@H]3CC[C@@H]4NC(=O)C=C[C@@]4(C)[C@H]3CC[C@]21C | 6.911 | inhibitor, full curve, poor fit
CN(C)CCCN1c2ccccc2Sc2ccccc21 | 15.47 | inhibitor, single point
COc1c2occc2c(OC)c2c(=O)cc(C)oc12 | 5.49 | inhibitor, partial curve
O=C(O)CC(O)CC(O)/C=C/c1c(C2CC2)nc2ccccc2c1-c1ccc(F)cc1 (stereo unspecified) | 25.57 | inhibitor, partial curve
COC1CC2CCC(C)[C@](O)(O2)C(=O)C(=O)N2CCCCC2C(=O)OC(C(C)CC2CCC(O)C(OC)C2)CC(=O)C(C)/C=C(/C)C(O)C(OC)C(=O)C(C)CC(C)C=CC=C/C=C\1C (stereo partly specified) | 18.11 | inhibitor, full curve, poor fit
CCN(Cc1ccncc1)C(=O)C(CO)c1ccccc1 (stereo unspecified) | 11.42 | inhibitor, full curve, poor fit
C=CC[N+]1([C@H]2C[C@H]3[C@@H]4CC[C@H]5C[C@H](O)[C@@H](N6CCOCC6)C[C@]5(C)[C@H]4CC[C@]3(C)[C@H]2OC(C)=O)CCCC1 | 4.548 | inhibitor, partial curve
CN1CCC(=C2c3ccccc3Sc3ccccc32)CC1 | 36.13 | inhibitor, single point
CCOC(=O)C(C#N)=C(c1ccccc1)c1ccccc1 | 32.2 | inhibitor, partial curve, poor fit
Nc1nc(Cl)nc2c1ncn2C1CC(O)C(CO)O1 (stereo unspecified) | 7.208 | inhibitor, partial curve, poor fit
COC(=O)C1[C@@H](OC)C(OC(=O)COc2ccc(OC)cc2)C[C@@H]2CN3CCc4c([nH]c5cc(OC)ccc45)[C@H]3C[C@H]12 (stereo partly specified) | 0.1282 | inhibitor, full curve, poor fit
CC1(C)[C@@H](C=C(Cl)Cl)[C@@H]1C(=O)OCc1c(F)c(F)cc(F)c1F | 0.5103 | inhibitor, full curve, poor fit
COc1cc(NS(C)(=O)=O)ccc1Nc1c2ccccc2nc2ccccc12 | 6.424 | inhibitor, partial curve, poor fit
CC(C)NCC(O)c1ccc(O)c(O)c1 (stereo unspecified) | 0.9074 | inhibitor, full curve, poor fit
Clc1ccc(COC(Cn2ccnc2)c2ccc(Cl)cc2Cl)cc1 (stereo unspecified) | 7.208 | inhibitor, partial curve
Cc1[nH]c(=O)c(C#N)cc1-c1ccc2nccn2c1 | 7.208 | inhibitor, partial curve

The first 3 entries again:

Fc1ccc(C(c2ccc(F)cc2)N2CCN(CC=Cc3ccccc3)CC2)cc1 read fitted potency 40.53 µM (inhibitor, single point).
COc1ccc2c(c1)OC(C)(C)C(c1ccccc1)C2c1ccc(OCCN2CCCC2)cc1 (stereo unspecified) read fitted potency 28.7 µM (inhibitor, partial curve, poor fit).
CN1C[C@H](CNC(=O)OCc2ccccc2)C[C@@H]2c3cccc4c3c(cn4C)C[C@H]21 read fitted potency 36.13 µM (inhibitor, partial curve, poor fit).

Source: PubChem BioAssay AID624032 (NCATS, 2012).